Experimental data: US20040029178A1 (priority 2000, published 2004)

Assay: general procedure: Fmoc solid-phase peptide synthesis; 2-chlorotrityl resin; DCC/HOBt
Settings: whole synthesis, scale 150 mg of the resin

Fmoc-Trp-Tyr-Lys-His-Val-Ala-Ser-Pro-Arg-Tyr-His-Thr-Val-Gly-Arg-Ala-Ala-Gly-Leu-Leu-Met-Gly-Leu
isolated mass: 9.7 mg
